Assay results taken from the supplement of paper PMC12067093, “Discovery and optimisation of a covalent ligand for TRIM25 and its application to targeted protein ubiquitination” (Chemical Science, 2025).
This is one part of the list.

The chains behind the UniProt entries cited, without tags or fusion partners. Where a name states a change or a piece, a line headed by the entry shows the natural chain unless it says otherwise.
UniProt P41250: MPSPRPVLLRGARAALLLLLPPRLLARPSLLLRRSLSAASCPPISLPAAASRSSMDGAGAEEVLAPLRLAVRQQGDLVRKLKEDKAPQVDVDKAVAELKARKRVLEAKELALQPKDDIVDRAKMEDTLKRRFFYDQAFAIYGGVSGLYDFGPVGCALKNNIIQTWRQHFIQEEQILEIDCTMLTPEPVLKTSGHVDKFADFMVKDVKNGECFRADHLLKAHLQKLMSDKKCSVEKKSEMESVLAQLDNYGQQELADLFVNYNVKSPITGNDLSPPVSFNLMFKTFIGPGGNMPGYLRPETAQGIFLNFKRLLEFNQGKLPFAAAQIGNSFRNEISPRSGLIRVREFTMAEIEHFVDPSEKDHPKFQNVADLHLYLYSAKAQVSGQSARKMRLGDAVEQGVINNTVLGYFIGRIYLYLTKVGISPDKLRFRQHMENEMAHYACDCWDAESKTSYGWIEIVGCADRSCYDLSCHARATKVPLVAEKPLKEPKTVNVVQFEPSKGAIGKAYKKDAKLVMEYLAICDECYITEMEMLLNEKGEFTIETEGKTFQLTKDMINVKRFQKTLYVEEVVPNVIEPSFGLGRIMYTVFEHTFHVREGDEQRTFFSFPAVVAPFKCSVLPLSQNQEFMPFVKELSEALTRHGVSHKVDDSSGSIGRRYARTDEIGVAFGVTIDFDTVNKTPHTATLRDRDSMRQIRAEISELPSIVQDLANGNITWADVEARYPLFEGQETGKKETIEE
UniProt P31150: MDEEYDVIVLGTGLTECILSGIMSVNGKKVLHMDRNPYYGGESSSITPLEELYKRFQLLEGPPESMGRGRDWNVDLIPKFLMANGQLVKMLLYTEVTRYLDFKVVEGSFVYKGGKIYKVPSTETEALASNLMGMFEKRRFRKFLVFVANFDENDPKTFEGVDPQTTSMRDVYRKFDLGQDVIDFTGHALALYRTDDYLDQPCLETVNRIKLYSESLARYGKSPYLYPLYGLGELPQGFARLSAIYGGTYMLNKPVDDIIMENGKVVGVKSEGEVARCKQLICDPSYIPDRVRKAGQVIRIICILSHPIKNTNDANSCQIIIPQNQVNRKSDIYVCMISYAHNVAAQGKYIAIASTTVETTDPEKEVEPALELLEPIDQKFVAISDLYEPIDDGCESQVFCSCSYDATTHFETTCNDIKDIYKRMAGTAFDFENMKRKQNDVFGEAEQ
UniProt Q92538, whole entry, looked up: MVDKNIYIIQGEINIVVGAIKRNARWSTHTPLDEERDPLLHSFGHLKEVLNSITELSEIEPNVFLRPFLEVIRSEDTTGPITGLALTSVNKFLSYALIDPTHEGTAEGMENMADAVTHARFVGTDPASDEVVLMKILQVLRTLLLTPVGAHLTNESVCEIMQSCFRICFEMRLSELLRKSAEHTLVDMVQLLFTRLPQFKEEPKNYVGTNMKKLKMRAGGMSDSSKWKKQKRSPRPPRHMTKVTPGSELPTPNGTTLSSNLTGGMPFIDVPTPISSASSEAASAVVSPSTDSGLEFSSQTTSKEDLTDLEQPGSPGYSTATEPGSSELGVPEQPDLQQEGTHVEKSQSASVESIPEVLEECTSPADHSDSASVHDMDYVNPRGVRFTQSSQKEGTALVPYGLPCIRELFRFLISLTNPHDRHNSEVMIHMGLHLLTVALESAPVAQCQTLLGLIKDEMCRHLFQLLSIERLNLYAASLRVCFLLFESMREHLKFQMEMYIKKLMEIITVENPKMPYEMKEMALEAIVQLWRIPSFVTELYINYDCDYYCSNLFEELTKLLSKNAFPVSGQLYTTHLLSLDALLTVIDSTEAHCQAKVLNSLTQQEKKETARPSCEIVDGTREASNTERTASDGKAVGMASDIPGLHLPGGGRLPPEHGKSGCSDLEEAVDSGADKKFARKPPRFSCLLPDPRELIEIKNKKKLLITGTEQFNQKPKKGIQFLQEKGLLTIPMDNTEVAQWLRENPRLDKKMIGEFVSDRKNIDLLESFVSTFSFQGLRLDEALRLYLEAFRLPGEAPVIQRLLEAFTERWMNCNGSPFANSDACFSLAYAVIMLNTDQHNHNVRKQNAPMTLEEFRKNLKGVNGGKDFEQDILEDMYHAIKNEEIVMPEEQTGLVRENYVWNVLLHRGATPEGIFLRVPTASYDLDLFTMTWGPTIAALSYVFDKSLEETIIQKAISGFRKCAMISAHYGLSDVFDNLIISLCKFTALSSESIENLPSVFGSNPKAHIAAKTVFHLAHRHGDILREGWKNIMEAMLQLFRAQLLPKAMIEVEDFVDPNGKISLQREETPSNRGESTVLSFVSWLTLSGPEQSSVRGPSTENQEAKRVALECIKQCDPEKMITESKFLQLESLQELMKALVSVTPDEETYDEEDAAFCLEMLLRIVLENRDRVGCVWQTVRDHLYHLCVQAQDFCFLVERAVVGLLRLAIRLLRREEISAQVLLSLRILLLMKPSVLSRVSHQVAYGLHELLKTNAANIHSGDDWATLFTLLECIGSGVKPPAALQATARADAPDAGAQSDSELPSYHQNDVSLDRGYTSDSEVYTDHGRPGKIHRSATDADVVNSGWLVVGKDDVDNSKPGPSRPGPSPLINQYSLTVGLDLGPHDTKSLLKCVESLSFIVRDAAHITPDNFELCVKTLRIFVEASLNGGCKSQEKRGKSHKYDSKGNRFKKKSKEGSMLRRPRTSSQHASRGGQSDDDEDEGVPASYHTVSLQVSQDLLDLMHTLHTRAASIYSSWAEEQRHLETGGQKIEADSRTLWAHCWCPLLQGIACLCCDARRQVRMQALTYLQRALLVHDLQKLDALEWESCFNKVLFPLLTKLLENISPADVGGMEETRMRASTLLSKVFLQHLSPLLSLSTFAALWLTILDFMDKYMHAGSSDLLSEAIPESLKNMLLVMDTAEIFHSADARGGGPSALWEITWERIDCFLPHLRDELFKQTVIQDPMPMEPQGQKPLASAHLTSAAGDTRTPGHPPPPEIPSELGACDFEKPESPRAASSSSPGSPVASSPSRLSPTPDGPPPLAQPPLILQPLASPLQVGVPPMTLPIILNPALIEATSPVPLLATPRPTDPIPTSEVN
UniProt Q8TEQ6: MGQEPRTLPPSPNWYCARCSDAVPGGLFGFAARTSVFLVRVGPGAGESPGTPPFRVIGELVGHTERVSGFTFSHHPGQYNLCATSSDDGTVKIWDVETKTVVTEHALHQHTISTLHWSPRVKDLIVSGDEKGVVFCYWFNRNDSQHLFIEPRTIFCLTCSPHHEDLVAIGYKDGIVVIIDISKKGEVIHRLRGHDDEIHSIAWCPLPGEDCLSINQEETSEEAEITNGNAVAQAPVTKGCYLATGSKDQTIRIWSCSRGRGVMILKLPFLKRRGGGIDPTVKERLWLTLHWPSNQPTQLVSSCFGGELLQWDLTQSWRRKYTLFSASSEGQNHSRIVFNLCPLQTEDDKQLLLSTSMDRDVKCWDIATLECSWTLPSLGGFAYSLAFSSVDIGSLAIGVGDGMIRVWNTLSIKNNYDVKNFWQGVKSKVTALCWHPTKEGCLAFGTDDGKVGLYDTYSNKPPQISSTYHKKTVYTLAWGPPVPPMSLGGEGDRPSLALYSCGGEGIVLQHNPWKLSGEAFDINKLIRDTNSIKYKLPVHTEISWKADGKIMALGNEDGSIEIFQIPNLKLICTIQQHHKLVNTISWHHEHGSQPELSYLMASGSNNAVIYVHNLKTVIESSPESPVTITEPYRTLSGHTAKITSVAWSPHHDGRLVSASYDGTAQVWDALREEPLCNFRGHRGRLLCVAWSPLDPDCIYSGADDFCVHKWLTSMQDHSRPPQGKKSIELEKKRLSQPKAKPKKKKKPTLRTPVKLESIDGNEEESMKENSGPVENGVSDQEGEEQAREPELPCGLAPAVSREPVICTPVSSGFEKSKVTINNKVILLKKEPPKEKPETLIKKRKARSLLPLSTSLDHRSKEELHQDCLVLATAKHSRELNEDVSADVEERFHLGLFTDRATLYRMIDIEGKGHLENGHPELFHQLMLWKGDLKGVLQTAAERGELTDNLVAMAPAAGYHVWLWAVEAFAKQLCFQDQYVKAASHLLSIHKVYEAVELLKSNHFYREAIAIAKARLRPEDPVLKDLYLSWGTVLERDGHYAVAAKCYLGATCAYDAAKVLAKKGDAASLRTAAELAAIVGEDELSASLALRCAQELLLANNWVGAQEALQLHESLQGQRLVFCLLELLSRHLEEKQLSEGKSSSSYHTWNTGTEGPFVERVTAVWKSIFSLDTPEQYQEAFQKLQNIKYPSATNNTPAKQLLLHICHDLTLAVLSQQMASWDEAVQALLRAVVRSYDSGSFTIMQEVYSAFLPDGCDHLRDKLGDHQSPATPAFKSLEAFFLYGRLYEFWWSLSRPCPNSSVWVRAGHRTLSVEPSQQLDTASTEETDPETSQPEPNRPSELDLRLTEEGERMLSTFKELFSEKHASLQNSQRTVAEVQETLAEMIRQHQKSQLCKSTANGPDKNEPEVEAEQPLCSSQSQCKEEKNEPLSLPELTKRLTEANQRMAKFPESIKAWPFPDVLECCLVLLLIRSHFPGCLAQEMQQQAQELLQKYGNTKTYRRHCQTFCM
UniProt P32189: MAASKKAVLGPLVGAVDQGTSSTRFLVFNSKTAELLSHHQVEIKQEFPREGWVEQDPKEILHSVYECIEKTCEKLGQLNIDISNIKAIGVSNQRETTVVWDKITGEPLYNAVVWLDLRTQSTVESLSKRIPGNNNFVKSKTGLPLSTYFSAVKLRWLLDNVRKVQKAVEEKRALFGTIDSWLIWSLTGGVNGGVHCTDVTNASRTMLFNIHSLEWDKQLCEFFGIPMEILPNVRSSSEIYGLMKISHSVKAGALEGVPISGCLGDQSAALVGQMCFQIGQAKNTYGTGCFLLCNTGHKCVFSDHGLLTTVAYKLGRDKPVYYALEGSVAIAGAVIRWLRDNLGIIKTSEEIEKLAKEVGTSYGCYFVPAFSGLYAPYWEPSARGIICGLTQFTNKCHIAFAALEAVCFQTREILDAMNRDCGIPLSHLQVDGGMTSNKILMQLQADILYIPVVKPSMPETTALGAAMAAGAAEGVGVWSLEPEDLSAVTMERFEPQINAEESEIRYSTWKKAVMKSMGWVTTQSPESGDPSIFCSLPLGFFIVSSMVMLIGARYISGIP
UniProt Q06210: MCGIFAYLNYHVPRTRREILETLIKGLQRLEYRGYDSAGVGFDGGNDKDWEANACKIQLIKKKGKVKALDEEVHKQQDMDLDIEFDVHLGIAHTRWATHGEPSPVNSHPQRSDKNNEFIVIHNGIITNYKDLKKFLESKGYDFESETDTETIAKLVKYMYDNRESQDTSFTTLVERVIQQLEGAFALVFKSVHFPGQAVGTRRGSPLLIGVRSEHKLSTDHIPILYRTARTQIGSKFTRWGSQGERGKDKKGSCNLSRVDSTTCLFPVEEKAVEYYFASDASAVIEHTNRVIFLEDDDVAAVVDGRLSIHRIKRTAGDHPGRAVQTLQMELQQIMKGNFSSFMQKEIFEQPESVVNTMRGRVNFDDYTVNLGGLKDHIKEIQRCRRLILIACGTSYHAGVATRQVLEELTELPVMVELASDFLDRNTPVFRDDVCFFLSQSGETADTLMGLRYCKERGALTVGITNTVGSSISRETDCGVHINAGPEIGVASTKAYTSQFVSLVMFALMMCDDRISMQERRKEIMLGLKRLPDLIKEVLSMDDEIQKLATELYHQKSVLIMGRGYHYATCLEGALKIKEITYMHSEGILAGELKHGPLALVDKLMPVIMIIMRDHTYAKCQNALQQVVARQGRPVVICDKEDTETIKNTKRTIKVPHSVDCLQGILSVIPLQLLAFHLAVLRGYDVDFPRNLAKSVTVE
UniProt Q9Y2X7: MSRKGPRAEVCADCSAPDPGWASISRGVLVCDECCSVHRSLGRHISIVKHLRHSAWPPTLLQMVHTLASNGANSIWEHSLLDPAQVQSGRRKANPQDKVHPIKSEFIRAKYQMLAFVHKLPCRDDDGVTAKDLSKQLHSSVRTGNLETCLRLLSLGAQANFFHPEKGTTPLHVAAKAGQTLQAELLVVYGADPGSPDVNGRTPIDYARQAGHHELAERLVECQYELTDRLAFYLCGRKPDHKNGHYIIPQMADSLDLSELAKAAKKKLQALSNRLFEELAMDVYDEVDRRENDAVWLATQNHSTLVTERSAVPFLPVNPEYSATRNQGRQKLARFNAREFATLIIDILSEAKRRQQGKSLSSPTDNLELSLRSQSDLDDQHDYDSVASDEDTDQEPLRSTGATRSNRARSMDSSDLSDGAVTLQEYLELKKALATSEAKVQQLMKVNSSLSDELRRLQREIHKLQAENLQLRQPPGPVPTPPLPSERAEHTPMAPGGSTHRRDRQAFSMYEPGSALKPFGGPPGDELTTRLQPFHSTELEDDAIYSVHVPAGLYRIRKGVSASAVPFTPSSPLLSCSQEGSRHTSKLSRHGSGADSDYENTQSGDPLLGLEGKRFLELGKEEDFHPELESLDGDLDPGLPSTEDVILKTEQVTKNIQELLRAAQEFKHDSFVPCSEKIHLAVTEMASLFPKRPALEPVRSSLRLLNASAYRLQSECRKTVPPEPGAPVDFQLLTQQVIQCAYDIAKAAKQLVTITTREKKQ

Compound: Cc1cc(ccc1-c1ccccc1)C(=O)N1CCCN(CC1)C(=O)CCl [compound 10]
Assay: probe-labelled cysteine peptide fold change vs DMSO (competition) (log2 fold change); higher = less target engagement (more negative = stronger competition)
Conditions: THP-1, incubation time: 4 h
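Also: competitive profiling in live THP-1 cells: cysteine peptides tagged with an iodoacetamide desthiobiotin (IA-DTB) probe, intensity after compound treatment relative to DMSO-treated cells.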

Row | Target | probe-labelled cysteine peptide fold change (10 µM) | probe-labelled cysteine peptide fold change (50 µM)
1 | GARS_P41250_616_CSVLPLSQNQEFMPFVK (UniProt P41250) | -0.0255 | 0.0502
2 | GALNT6_Q8NCL4_509_NLGTNQCLDVGENNR (UniProt Q8NCL4) | 0.135 | 0.262
3 | GEMIN2_O14893_63_RVQIEAAQCPDVVVAQIDPK (UniProt O14893) | -0.27 | -0.164
4 | GARS_P41250_180_QHFIQEEQILEIDCTMLTPEPVLK (UniProt P41250) | -0.21 | 0.122
5 | GDI2_P50395_282_QLICDPSYVK (UniProt P50395) | -0.00251 | 0.0252
6 | GCC2_Q8IWJ2_92_AETEQQCLSLKK (UniProt Q8IWJ2) | 0.179 | -0.122
7 | GGPS1_O95749_138_DNYTCPTEEEYK (UniProt O95749) | 0.0949 | 0.243
8 | GDI1_P31150_302_IICILSHPIK (UniProt P31150) | 0.106 | -0.0443
9 | GBF1_Q92538_1707_IDCFLPHLRDELFK (UniProt Q92538) | -0.0239 | -0.111
10 | GIGYF1_O75420_177_CGFEEGGAGPR (UniProt O75420) | -0.196 | -0.348
11 | GBF1_Q92538_1543_TLWAHCWCPLLQGIACLCCDAR (UniProt Q92538) | -0.0638 | -0.0692
12 | GCN1_Q92616_55_LFCLTLHR (UniProt Q92616) | -0.238 | -0.244
13 | GEMIN5_Q8TEQ6_82_VSGFTFSHHPGQYNLCATSSDDGTVK (UniProt Q8TEQ6) | 0.193 | 0.148
14 | GEMIN4_P57678_210_LRSDPDACPTMPLLAMLLR (UniProt P57678) | -0.401 | -0.547
15 | GATD1_Q8NB37_132_ILQHFHSESKPICAVGHGVAALCCATNEDR (UniProt Q8NB37) | 0.201 | 0.142
16 | GEMIN5_Q8TEQ6_676_EEPLCNFR (UniProt Q8TEQ6) | -0.223 | -0.0118
17 | GCN1_Q92616_1781_FTPYVGPIIPCILK (UniProt Q92616) | 0.12 | 0.32

From no. 7 to 13, as listed above:
Row | Target | probe-labelled cysteine peptide fold change (10 µM) | probe-labelled cysteine peptide fold change (50 µM)
7 | GGPS1_O95749_138_DNYTCPTEEEYK (UniProt O95749) | 0.0949 | 0.243
8 | GDI1_P31150_302_IICILSHPIK (UniProt P31150) | 0.106 | -0.0443
9 | GBF1_Q92538_1707_IDCFLPHLRDELFK (UniProt Q92538) | -0.0239 | -0.111
10 | GIGYF1_O75420_177_CGFEEGGAGPR (UniProt O75420) | -0.196 | -0.348
11 | GBF1_Q92538_1543_TLWAHCWCPLLQGIACLCCDAR (UniProt Q92538) | -0.0638 | -0.0692
12 | GCN1_Q92616_55_LFCLTLHR (UniProt Q92616) | -0.238 | -0.244
13 | GEMIN5_Q8TEQ6_82_VSGFTFSHHPGQYNLCATSSDDGTVK (UniProt Q8TEQ6) | 0.193 | 0.148

The list continues:

Row | Target | probe-labelled cysteine peptide fold change (10 µM) | probe-labelled cysteine peptide fold change (50 µM)
18 | GIMAP1_Q8WWP7_76_CHVEVVDTPDIFSSQVSK (UniProt Q8WWP7) | 0.0487 | -0.0654
19 | GK_P32189_289+293_NTYGTGCFLLCNTGHK (UniProt P32189) | 0.0602 | -0.0301
20 | GFPT1_Q06210_435_DDVCFFLSQSGETADTLMGLR (UniProt Q06210) | 0.346 | 0.332
21 | GATAD2A_Q86YP4_420_EPYMCAQCK (UniProt Q86YP4) | 0.0841 | -0.39
22 | GFPT1_Q06210_55_DWEANACK (UniProt Q06210) | -0.0151 | -0.0483
23 | GATM_P50440_407+410_NANSLGGGFHCWTCDVR (UniProt P50440) | -0.0564 | -0.214
24 | GATM_P50440_324_DPNPMHIDATFNIIGPGIVLSNPDRPCHQIDLFK (UniProt P50440) | 0.122 | 0.703
25 | GART_P22102_93_SAGVQCFGPTAEAAQLESSK (UniProt P22102) | 0.0279 | 0.0457
26 | GIT1_Q9Y2X7_122_LPCRDDDGVTAK (UniProt Q9Y2X7) | -0.137 | -0.385
27 | GIGYF1_O75420_261_GGCGEEEGR (UniProt O75420) | 0.0933 | -0.0779
28 | GGCT_O75223_144_IICMGAK (UniProt O75223) | -0.089 | -0.0656
29 | GHDC_Q8N2G8_377_VVGAYNQCPVVR (UniProt Q8N2G8) | -0.022 | -0.191
30 | GCN1_Q92616_2015_ALCDPLEEVR (UniProt Q92616) | -0.0318 | 0.0318
31 | GIT1_Q9Y2X7_31_GVLVCDECCSVHR (UniProt Q9Y2X7) | 0.157 | 0.129
32 | GBE1_Q04446_88_CADGGLYCK (UniProt Q04446) | 0.0659 | -0.25
33 | GK_P32189_220_QLCEFFGIPMEILPNVR (UniProt P32189) | 0.497 | 0.472
34 | GCC1_Q96CN9_538_LSCEELEHQHQQEADDWKQELAR (UniProt Q96CN9) | -0.0143 | -0.0459
